{
  "source": "patent US9315825B2",
  "about": "“Pharmacologically induced transgene ablation system” (The Trustees of the University of Pennsylvania, priority 2010, dated 2016)",
  "test_system": "luciferase expression driven by a promoter induced by the dimerized TF",
  "assay": "In vivo model for a dimerizer-inducible system: Xenogen imaging of luciferase in mice given AAV vectors and rapamycin",
  "note": "At least one compound was matched to its structure with a doubt left.",
  "data": [
    {"smiles": "CO[C@H]1C[C@@H]2CC[C@@H](C)[C@@](O)(O2)C(=O)C(=O)N2CCCC[C@H]2C(=O)O[C@H]([C@H](C)C[C@@H]2CC[C@@H](O)[C@H](OC)C2)CC(=O)[C@H](C)/C=C(\\C)[C@@H](O)[C@@H](OC)C(=O)[C@H](C)C[C@H](C)/C=C/C=C/C=C/1C", "note": "[rapamycin]", "values": [
      {"measurement": "return of luciferase expression after induction", "setting": "dimerizer-inducible system, mice, data not shown", "value": "back to close to baseline within a week"},
      {"measurement": "dependence of luciferase expression on induction", "setting": "liver-specific regulatable vectors (TBG), mice", "value": "completely dependent upon induction by rapamycin"},
      {"measurement": "tissue in which luciferase expression was detected upon induction", "setting": "mice receiving vectors carrying the inducible TBG promoter system", "value": "detected specifically in liver"},
      {"measurement": "luciferase expression upon induction, relative to high dose groups", "setting": "mice that received 1×10^11 particles of viruses, rapamycin 2 mg/kg IP, predominantly in liver", "value": "lower level of expression upon induction"}
    ]}
  ]
}
